This note sets out measurements from the supplement of paper PMC10849652.

Protein sequences, listed by entry. Tags and fused reporters are not part of them. Lines headed by an entry give the natural chain unless they say otherwise; changes in a name come on top.
UniProt Q9P2W9: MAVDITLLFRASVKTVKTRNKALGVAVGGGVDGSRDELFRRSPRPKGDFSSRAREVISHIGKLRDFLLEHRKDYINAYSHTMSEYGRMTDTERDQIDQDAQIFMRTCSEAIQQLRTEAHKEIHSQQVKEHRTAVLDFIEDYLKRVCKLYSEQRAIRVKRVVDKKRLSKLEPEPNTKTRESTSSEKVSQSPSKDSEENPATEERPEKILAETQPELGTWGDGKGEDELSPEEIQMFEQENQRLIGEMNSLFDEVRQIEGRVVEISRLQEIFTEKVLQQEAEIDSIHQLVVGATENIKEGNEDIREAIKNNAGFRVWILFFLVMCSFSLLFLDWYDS
UniProt Q92797: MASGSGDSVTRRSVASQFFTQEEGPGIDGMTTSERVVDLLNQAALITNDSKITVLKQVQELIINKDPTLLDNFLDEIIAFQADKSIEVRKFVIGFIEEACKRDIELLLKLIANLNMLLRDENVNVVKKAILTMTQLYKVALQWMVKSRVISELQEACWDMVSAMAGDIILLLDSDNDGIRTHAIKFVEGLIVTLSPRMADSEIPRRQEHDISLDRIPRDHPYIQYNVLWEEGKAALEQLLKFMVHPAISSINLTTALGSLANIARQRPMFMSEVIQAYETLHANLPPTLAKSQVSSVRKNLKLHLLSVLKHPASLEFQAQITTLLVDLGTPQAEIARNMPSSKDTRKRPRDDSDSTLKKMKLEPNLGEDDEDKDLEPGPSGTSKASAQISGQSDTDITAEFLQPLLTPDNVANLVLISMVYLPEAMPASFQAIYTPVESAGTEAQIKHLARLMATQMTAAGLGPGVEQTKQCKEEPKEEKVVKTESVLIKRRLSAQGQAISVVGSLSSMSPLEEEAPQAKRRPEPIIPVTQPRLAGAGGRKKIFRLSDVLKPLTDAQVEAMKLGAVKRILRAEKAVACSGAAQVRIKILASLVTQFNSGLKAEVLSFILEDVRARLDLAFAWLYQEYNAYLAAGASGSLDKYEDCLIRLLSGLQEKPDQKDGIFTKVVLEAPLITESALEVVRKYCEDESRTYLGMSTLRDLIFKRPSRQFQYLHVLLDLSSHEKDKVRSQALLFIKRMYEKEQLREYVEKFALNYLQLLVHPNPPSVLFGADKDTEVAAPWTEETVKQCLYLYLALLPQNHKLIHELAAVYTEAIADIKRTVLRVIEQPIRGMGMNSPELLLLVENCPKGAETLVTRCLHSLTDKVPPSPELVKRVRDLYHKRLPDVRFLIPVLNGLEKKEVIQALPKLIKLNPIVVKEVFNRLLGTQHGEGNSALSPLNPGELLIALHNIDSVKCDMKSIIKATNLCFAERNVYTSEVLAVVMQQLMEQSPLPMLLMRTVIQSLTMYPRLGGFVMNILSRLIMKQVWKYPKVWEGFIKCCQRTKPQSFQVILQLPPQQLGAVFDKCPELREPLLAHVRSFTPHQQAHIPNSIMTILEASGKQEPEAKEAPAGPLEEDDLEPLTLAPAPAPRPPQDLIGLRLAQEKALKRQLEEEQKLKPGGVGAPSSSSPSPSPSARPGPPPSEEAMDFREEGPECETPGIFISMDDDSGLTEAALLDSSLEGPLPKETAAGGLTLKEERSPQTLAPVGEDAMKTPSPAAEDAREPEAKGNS
UniProt Q12846: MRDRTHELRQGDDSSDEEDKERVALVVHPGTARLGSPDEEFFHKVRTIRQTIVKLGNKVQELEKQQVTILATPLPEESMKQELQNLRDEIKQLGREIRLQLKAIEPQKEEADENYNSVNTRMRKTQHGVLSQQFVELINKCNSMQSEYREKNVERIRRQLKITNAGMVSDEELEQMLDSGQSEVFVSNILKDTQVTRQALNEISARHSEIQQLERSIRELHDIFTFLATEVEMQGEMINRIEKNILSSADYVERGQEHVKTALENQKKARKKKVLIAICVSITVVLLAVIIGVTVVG
UniProt Q7RTN6: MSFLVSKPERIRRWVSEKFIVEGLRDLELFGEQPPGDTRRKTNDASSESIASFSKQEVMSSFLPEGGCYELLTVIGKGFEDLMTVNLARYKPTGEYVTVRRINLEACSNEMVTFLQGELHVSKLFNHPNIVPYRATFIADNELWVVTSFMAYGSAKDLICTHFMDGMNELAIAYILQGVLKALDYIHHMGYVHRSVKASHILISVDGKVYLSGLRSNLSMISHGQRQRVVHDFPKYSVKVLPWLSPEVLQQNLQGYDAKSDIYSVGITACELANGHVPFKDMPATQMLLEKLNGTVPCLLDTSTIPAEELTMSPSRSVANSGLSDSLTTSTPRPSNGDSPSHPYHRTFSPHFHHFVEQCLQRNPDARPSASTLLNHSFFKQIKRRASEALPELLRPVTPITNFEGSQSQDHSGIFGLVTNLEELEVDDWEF
UniProt P50225: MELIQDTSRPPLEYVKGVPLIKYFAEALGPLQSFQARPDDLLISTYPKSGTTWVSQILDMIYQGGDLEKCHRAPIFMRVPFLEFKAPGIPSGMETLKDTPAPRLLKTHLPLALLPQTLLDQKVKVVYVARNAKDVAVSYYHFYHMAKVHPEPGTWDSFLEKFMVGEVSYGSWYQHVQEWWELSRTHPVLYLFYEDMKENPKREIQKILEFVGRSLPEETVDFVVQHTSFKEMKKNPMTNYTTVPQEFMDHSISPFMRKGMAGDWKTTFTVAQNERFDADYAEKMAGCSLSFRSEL
UniProt O60506: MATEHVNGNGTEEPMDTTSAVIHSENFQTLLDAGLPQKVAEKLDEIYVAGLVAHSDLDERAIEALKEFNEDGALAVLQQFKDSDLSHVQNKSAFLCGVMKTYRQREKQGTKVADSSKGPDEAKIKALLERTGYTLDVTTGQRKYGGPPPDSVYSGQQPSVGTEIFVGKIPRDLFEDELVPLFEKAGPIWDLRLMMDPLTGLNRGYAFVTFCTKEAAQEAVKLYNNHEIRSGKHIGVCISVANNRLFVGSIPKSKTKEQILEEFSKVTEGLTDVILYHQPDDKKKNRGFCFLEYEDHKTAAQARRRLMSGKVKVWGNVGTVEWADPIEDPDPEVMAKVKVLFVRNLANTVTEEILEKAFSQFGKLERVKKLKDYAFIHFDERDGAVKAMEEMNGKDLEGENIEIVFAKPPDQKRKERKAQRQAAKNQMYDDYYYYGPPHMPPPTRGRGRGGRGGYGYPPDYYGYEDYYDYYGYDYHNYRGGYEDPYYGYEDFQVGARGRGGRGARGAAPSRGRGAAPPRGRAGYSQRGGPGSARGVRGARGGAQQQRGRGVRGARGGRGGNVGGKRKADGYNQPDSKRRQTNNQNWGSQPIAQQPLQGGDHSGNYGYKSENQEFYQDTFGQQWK
UniProt Q6ICL3: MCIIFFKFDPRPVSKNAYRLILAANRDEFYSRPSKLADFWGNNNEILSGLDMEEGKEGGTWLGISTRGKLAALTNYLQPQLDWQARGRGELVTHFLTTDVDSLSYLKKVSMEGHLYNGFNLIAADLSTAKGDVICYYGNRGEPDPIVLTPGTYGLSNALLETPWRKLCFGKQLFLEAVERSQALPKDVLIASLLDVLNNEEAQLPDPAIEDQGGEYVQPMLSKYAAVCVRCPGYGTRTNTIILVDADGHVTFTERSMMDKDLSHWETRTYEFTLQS
UniProt O43752: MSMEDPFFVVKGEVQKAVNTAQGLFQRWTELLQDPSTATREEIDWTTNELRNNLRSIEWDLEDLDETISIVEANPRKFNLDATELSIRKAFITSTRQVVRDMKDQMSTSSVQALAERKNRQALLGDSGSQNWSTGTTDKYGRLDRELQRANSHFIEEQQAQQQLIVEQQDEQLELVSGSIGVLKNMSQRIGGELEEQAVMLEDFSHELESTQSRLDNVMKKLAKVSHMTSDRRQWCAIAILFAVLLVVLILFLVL
UniProt Q15633: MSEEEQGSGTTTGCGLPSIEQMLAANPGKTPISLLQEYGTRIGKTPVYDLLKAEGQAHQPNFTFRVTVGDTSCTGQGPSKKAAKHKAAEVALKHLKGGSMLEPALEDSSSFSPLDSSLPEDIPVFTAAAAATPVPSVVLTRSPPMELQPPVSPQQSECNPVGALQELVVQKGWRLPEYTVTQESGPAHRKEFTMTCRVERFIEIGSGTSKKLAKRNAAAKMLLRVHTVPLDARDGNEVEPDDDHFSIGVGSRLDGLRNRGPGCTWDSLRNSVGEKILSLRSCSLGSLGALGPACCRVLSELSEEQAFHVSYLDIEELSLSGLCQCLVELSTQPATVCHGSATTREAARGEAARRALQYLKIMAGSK
UniProt Q15527: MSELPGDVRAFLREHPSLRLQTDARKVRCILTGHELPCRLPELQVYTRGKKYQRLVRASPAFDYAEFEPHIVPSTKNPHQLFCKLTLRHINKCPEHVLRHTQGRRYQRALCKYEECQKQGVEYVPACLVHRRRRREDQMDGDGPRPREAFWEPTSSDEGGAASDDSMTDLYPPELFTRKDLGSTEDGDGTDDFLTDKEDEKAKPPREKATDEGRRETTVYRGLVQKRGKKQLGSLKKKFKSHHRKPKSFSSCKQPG
UniProt Q17R31: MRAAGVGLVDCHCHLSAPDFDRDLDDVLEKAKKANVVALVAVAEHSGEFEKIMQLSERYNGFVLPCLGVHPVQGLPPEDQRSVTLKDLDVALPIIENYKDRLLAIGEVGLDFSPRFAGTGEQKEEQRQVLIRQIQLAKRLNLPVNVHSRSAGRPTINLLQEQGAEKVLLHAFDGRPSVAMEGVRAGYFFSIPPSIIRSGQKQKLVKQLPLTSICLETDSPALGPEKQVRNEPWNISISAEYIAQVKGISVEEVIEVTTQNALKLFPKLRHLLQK
UniProt Q86VP1, whole entry, looked up: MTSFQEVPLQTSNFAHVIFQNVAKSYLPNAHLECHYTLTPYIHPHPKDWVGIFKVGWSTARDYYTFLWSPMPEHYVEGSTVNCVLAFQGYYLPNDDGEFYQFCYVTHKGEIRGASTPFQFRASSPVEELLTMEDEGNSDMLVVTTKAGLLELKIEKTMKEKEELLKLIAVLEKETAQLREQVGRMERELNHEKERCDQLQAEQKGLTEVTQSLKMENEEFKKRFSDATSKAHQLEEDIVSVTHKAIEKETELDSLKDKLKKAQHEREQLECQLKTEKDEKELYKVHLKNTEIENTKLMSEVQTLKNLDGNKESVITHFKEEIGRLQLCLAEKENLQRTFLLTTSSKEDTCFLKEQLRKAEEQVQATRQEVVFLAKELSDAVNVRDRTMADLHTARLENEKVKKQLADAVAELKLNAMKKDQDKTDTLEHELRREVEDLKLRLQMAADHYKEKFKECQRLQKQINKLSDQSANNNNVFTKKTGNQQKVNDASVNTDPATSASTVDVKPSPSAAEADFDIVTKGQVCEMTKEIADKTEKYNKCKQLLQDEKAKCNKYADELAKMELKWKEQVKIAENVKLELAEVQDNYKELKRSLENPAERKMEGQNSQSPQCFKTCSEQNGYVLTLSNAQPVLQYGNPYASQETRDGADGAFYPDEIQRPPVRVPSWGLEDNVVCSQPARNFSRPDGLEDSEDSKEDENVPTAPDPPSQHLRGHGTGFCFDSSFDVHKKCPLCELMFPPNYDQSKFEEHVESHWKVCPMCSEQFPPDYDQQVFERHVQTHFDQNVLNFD
UniProt Q9NZ72: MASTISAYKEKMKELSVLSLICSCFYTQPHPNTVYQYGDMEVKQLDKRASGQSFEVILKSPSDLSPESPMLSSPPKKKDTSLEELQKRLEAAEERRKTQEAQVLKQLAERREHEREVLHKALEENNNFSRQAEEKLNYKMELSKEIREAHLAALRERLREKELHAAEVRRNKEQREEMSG
UniProt Q7Z7C8, whole entry, looked up: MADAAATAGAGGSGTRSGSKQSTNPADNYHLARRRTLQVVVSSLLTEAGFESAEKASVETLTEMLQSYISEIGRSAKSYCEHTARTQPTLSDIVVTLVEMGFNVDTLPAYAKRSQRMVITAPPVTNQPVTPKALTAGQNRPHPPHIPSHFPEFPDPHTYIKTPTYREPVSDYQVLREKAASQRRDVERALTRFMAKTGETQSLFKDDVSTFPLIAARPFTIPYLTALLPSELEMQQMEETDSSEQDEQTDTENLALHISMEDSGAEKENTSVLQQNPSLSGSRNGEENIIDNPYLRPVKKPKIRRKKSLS
UniProt P37802: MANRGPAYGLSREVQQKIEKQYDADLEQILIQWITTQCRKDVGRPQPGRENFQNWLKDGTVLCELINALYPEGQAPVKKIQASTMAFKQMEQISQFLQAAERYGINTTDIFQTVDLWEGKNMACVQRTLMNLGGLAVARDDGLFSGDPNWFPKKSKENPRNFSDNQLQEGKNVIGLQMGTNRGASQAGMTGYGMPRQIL
UniProt P0DMM9: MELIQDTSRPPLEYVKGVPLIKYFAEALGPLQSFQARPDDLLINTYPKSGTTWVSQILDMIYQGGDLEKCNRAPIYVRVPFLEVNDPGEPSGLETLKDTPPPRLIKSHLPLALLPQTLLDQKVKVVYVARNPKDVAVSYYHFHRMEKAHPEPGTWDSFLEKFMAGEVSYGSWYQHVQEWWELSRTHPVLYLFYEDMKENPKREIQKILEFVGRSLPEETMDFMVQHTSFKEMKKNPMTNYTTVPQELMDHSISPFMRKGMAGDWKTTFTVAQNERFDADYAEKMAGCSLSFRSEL

This is one part of the list.

Compound in the first assay: COc1cc(C(=O)O)ccc1NC(=O)[C@@H]1N[C@@H](CC(C)(C)C)[C@](C#N)(c2ccc(Cl)cc2F)[C@H]1c1cccc(Cl)c1F [idasanutlin]
Nature of the assay: log2 fold change, soluble protein after heating vs DMSO (PISA); higher = thermal stabilisation; K562 cells, 10 uM, 30 min; active = over 0.2 and 3.5 SD of the protein, either way, in both replicates (recomputed). The procedure, abridged: (§1)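 K562 cells at 2×10^6 cells/mL were treated for 30 min with 10 μM compound, and aliquots were heated for 3 min over 48°C-58°C before pooling. Extraction used PBS with 0.5% NP-40 at 4°C, and soluble protein was the supernatant after 21,000xg for 90 min, measured by TMTpro 16plex LC-MS/MS with channel sums equalised. Thermal stability values, relative to control samples and from duplicates, are log2 fold changes.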
Regarding STX18 (UniProt Q9P2W9), the log2 fold change is inactive: -0.033.

On to SYMPK (UniProt Q92797), for which the log2 fold change was inactive: -0.127.

Consider SURF1 (UniProt Q15526), for which the log2 fold change was inactive: 0.025.

As to TANK (UniProt Q92844), the log2 fold change is inactive: 0.02.

With TAOK1 (UniProt Q7L7X3), the log2 fold change was inactive: 0.031.

As to STRIP1 (UniProt Q5VSL9), the log2 fold change was inactive: -0.052.

For STX4 (UniProt Q12846), the log2 fold change is inactive: 0.029.

TBC1D10B (UniProt Q4KMP7): the log2 fold change was inactive: 0.032.

Take STRADA (UniProt Q7RTN6): the log2 fold change was inactive: 0.019.

With STX5 (UniProt Q13190), the log2 fold change was inactive: -0.186.

Take STXBP2 isoform 3 (UniProt Q15833): the log2 fold change is inactive: 0.043.

SULT1A1 (UniProt P50225): the log2 fold change was inactive: -0.02.

As to SUGP1 (UniProt Q8IWZ8), the log2 fold change was inactive: 0.026.

With TBC1D13 (UniProt Q9NVG8), the log2 fold change is inactive: -0.087.

For the target STOM (UniProt P27105), the log2 fold change was inactive: 0.046.

Take SYNCRIP (UniProt O60506): the log2 fold change is inactive: 0.084.

On to TANGO2 isoform 4 (UniProt Q6ICL3), for which the log2 fold change is inactive: 0.001.

With STX6 (UniProt O43752), the log2 fold change is inactive: -0.133.

Take TAOK3 (UniProt Q9H2K8): the log2 fold change was inactive: -0.003.

Turning to TARBP2 (UniProt Q15633), the log2 fold change is inactive: 0.152.

Regarding TACO1 (UniProt Q9BSH4), the log2 fold change was inactive: 0.066.

In the case of SURF2 (UniProt Q15527), the log2 fold change is inactive: 0.054.

On to SYNCRIP isoform 3 (UniProt O60506), for which the log2 fold change is inactive: 0.053.

Regarding SUPT4H1 (UniProt P63272), the log2 fold change was inactive: -0.182.

Turning to TATDN3 isoform 3 (UniProt Q17R31), the log2 fold change is inactive: -0.018.

For the target TACC1 isoform 2 (UniProt O75410), the log2 fold change was inactive: -0.003.

Take TAX1BP1 (UniProt Q86VP1): the log2 fold change is inactive: 0.069.

On to STMN3 (UniProt Q9NZ72), for which the log2 fold change was inactive: 0.076.

Consider TAF8 isoform 2 (UniProt Q7Z7C8), for which the log2 fold change is inactive: -0.008.

TARSL2 (UniProt A2RTX5): the log2 fold change is inactive: 0.008.

As to STRN (UniProt O43815), the log2 fold change was inactive: -0.018.

Turning to SUN1 isoform 9 (UniProt O94901), the log2 fold change is inactive: 0.02.

Take STK38 (UniProt Q15208): the log2 fold change was inactive: -0.009.

For STOML2 (UniProt Q9UJZ1), the log2 fold change is inactive: 0.018.

Consider TAGLN2 isoform 2 (UniProt P37802), for which the log2 fold change was inactive: 0.012.

Consider STX12 (UniProt Q86Y82), for which the log2 fold change was inactive: -0.022.

SYNE2 isoform 2 (UniProt Q8WXH0): the log2 fold change was inactive: -0.185.

SULT1A3 isoform 3 (UniProt P0DMM9): the log2 fold change was inactive: 0.007.

Compound in another assay: COc1cc(Nc2ncc3c(n2)-c2ccc(Cl)cc2C(c2c(F)cccc2OC)=NC3)ccc1C(=O)O [alisertib]
Described as above. Put shortly:
as §1
For the target STX18 (UniProt Q9P2W9), the log2 fold change is inactive: -0.05.

SYMPK (UniProt Q92797): the log2 fold change was inactive: 0.047.

In the case of SURF1 (UniProt Q15526), the log2 fold change is inactive: -0.098.

Regarding TANK (UniProt Q92844), the log2 fold change was inactive: -0.028.

Consider TAOK1 (UniProt Q7L7X3), for which the log2 fold change is inactive: 0.043.

As for STRIP1 (UniProt Q5VSL9), the log2 fold change is inactive: -0.077.

On to STX4 (UniProt Q12846), for which the log2 fold change is inactive: -0.046.

On to TBC1D10B (UniProt Q4KMP7), for which the log2 fold change was inactive: -0.088.

As for STRADA (UniProt Q7RTN6), the log2 fold change was inactive: -0.154.

Turning to STX5 (UniProt Q13190), the log2 fold change is inactive: -0.077.

Take STXBP2 isoform 3 (UniProt Q15833): the log2 fold change was inactive: -0.034.

On to SULT1A1 (UniProt P50225), for which the log2 fold change was inactive: 0.056.

For the target SUGP1 (UniProt Q8IWZ8), the log2 fold change is inactive: -0.038.

TBC1D13 (UniProt Q9NVG8): the log2 fold change was inactive: -0.024.

Take STOM (UniProt P27105): the log2 fold change was inactive: -0.154.

For SYNCRIP (UniProt O60506), the log2 fold change was inactive: -0.069.

Consider TANGO2 isoform 4 (UniProt Q6ICL3), for which the log2 fold change was inactive: -0.097.

As to STX6 (UniProt O43752), the log2 fold change is inactive: -0.122.

For TAOK3 (UniProt Q9H2K8), the log2 fold change was inactive: -0.038.

Turning to TARBP2 (UniProt Q15633), the log2 fold change was inactive: 0.005.

For the target TACO1 (UniProt Q9BSH4), the log2 fold change was inactive: -0.057.

Turning to SURF2 (UniProt Q15527), the log2 fold change was inactive: -0.133.

Take SYNCRIP isoform 3 (UniProt O60506): the log2 fold change is inactive: -0.067.

On to SUPT4H1 (UniProt P63272), for which the log2 fold change was inactive: -0.145.

Regarding TATDN3 isoform 3 (UniProt Q17R31), the log2 fold change was inactive: -0.051.

In the case of TACC1 isoform 2 (UniProt O75410), the log2 fold change was inactive: -0.036.

With TAX1BP1 (UniProt Q86VP1), the log2 fold change was inactive: 0.007.

Take STMN3 (UniProt Q9NZ72): the log2 fold change was inactive: 0.028.

Regarding TAF8 isoform 2 (UniProt Q7Z7C8), the log2 fold change is inactive: -0.147.

With TARSL2 (UniProt A2RTX5), the log2 fold change was inactive: -0.031.

In the case of STRN (UniProt O43815), the log2 fold change was inactive: -0.083.

With SUN1 isoform 9 (UniProt O94901), the log2 fold change was inactive: -0.059.

With STK38 (UniProt Q15208), the log2 fold change is inactive: 0.007.

Regarding STOML2 (UniProt Q9UJZ1), the log2 fold change was inactive: 0.016.

For the target TAGLN2 isoform 2 (UniProt P37802), the log2 fold change is inactive: -0.098.

Take STX12 (UniProt Q86Y82): the log2 fold change is inactive: -0.034.

With SYNE2 isoform 2 (UniProt Q8WXH0), the log2 fold change was inactive: -0.054.

In the case of SULT1A3 isoform 3 (UniProt P0DMM9), the log2 fold change was inactive: 0.267.
